The source gives many values for each of these; only a part stands here.
System: HSPC-pDCs
Test: RNA-sequencing of HSPC-pDCs generated with or without ascorbic acid
Format: cell-based, human
Conditions: Table 3
Experimental: HSPCs were thawed and 1×10^5 cells were seeded in DC medium with or without supplementation of ascorbic acid (AA). Following 16 days of differentiation with or without AA in the medium, pDCs were isolated by immunomagnetic depletion of non-pDCs, and HSPCs-pDCs were then primed for 72 hours with IFN-β/γ. Following priming, HSPC-pDCs were stored in RNAprotect Cell Reagent (Qiagen) at −80° C. until total RNA was extracted using the RNeasy Plus Micro Kit (Qiagen), which efficiently eliminates genomic DNA without the need for DNase treatment. The total RNA was send to BGI Europe for RNA-seq. Here, a non-stranded & polyA-selected mRNA library was prepared from the total RNA and subjected to PE100 sequencing using the BGISEQ platform. The samples generated on average about 4.84 Gb bases per sample. Low quality reads were filtered and the remaining reads were mapped to the genome with an average mapping ratio with the reference genome at 92.74%, the average gene mapping ratio at 79.90%. In total, 18,412 genes were identified. Gene expression was calculated based on the reads, differentially expressed genes and gene ontology analyses were analyzed on BGI's software analysis platform Dr. Tom. HSPCs were thawed and 1×10^5 cells were seeded in DC medium with or without supplementation of ascorbic acid (AA). Following 16 days of differentiation with or without AA in the medium, pDCs were isolated by immunomagnetic depletion of non-pDCs, and HSPCs-pDCs were then primed for 72 hours with IFN-β/γ. Following priming, HSPC-pDCs were stored in RNAprotect Cell Reagent (Qiagen) at −80 degrees until total RNA was extracted using the RNeasy Plus Micro Kit (Qiagen), which efficiently eliminates genomic DNA without the need for DNase treatment. The total RNA was send to BGI Europe for RNA-seq. Here, a non-stranded & polyA-selected mRNA library was prepared from the total RNA and subjected to PE100 sequencing using the BGISEQ platform. The samples generated on average about 4.84 Gb bases per sample. Low quality reads were filtered and the remaining reads were mapped to the genome with an average mapping ratio with the reference genome at 92.74%, the average gene mapping ratio at 79.90%. In total, 18,412 genes were identified. Gene expression was calculated based on the reads, differentially expressed genes and gene ontology analyses were analyzed on BGI's software analysis platform Dr. Tom.

Compound: O=C1O[C@H]([C@@H](O)CO)C(O)=C1O [ascorbic acid]
- log2 (+AA/−AA) (gene AP2A1, Qvalue 0.96): 0.049
- log2 (+AA/−AA) (gene AP3B1, Qvalue 0.73): −0.122
- log2 (+AA/−AA) (gene AP3B2, Qvalue 0.96): 0.363
- log2 (+AA/−AA) (gene AP3D1, Qvalue 0.20): 0.256
- log2 (+AA/−AA) (gene AP3M1, Qvalue 0.96): −0.050
- log2 (+AA/−AA) (gene AP3M2, Qvalue 0.89): 0.220
- log2 (+AA/−AA) (gene AP3S1, Qvalue 0.86): −0.090
- log2 (+AA/−AA) (gene AP3S2, Qvalue 0.04): −0.480
- log2 (+AA/−AA) (gene AP4B1, Qvalue 0.53): −0.275
- log2 (+AA/−AA) (gene AP4E1, Qvalue 0.95): 0.089
- log2 (+AA/−AA) (gene AP4M1, Qvalue 1.00): −0.003
- log2 (+AA/−AA) (gene AP4S1, Qvalue 0.49): −0.313
- log2 (+AA/−AA) (gene BLOC1S2, Qvalue 0.94): 0.114
- log2 (+AA/−AA) (gene BST2, Qvalue 0.91): 0.079
- log2 (+AA/−AA) (gene CHUK, Qvalue 0.95): 0.094
- log2 (+AA/−AA) (gene CLEC4C, Qvalue 9.44E−06): 3.491
- log2 (+AA/−AA) (gene DOCK2, Qvalue 0.71): 0.098
- log2 (+AA/−AA) (gene FURIN, Qvalue 0.93): 0.089
- log2 (+AA/−AA) (gene HSP90B1, Qvalue 0.38): −0.314
- log2 (+AA/−AA) (gene IL3RA, Qvalue 0.75): 0.247
- log2 (+AA/−AA) (gene IRAK1, Qvalue 0.19): 0.214
- log2 (+AA/−AA) (gene IRAK4, Qvalue 0.94): −0.069
- log2 (+AA/−AA) (gene IRF1, Qvalue 0.96): −0.045
- log2 (+AA/−AA) (gene IRF3, Qvalue 0.91): −0.082
- log2 (+AA/−AA) (gene IRF5, Qvalue 0.32): 0.232
- log2 (+AA/−AA) (gene IRF7, Qvalue 3.19E−04): 1.065
- log2 (+AA/−AA) (gene IRF8, Qvalue 1.77E−23): 1.594
- log2 (+AA/−AA) (gene IRF9, Qvalue 0.37): 0.404
- log2 (+AA/−AA) (gene LAMP5, Qvalue 1.29E−07): 2.419
- log2 (+AA/−AA) (gene LILRA4, Qvalue 0.04): 1.497
- log2 (+AA/−AA) (gene MAP3K7, Qvalue 0.46): −0.194
- log2 (+AA/−AA) (gene MAPK1, Qvalue 0.90): −0.067
- log2 (+AA/−AA) (gene MYD88, Qvalue 0.02): 0.697
- log2 (+AA/−AA) (gene NRP1, Qvalue 0.01): 1.661
- log2 (+AA/−AA) (gene PACSIN1, Qvalue 3.16E−03): 3.559
- log2 (+AA/−AA) (gene PLSCR1, Qvalue 0.03): 0.576
- log2 (+AA/−AA) (gene RSAD2, Qvalue 0.23): 1.967
- log2 (+AA/−AA) (gene SLC15A1, Qvalue 0.95): 1.770
- log2 (+AA/−AA) (gene SYK, Qvalue 0.82): −0.104
- log2 (+AA/−AA) (gene TAB1, Qvalue 0.71): −0.152
- log2 (+AA/−AA) (gene TAB2, Qvalue 0.43): 0.208
- log2 (+AA/−AA) (gene TBK1, Qvalue 0.96): 0.039
- log2 (+AA/−AA) (gene TEPSIN, Qvalue 0.92): −0.118
- log2 (+AA/−AA) (gene TLR3, Qvalue 0.28): 1.507
- log2 (+AA/−AA) (gene TLR7, Qvalue 1.1E−20): 2.326
- log2 (+AA/−AA) (gene TLR8, Qvalue 5.99E−07): 1.584
- log2 (+AA/−AA) (gene TLR9, Qvalue 1.70E−07): 2.487
- log2 (+AA/−AA) (gene TRAF3, Qvalue 0.01): 0.547
- log2 (+AA/−AA) (gene TRAF6, Qvalue 1.00): 0.008
- log2 (+AA/−AA) (gene TYROBP, Qvalue 0.17): 0.475
- log2 (+AA/−AA) (gene UBE2N, Qvalue 0.03): −0.327
- log2 (+AA/−AA) (gene UBE2V1, Qvalue 0.77): −0.100
- log2 (+AA/−AA) (gene UNC93B1, Qvalue 0.04): 0.649
